Data from patent publication US20250248984A1, “COMBINATION THERAPY FOR THE TREATMENT OF CANCER” (Children's Hospital Medical Center, priority 2024, published 2025).
At least one structure is not confirmed: it was looked up by name or label, or the drawing left a doubt.

Tested on: estradiol/E2
Assay: ELISA of estradiol/E2 in plasma of PDX 2017-129 mice

Structure (SMILES): Cc1ccc(C(=O)Nc2ccc(CN3CCN(C)CC3)c(C(F)(F)F)c2)cc1C#Cc1cnc2cccnn12 [ponatinib, reference compound]
- Levels of circulating plasma E2 (time not stated): no increase
- Levels of E2 in plasma (treated for one week, vs vehicle treated mice): unchanged
